Measured values published in PubChem BioAssay AID2685 (National Center for Advancing Translational Sciences (NCATS), 2010).
This is one part of the list. The main result of the screen is listed elsewhere. These columns were measured beside it and carry no call. Compounds called inactive in the main read-out are mostly missing here. Words in brackets tell the shape of the fitted curve; partial curves, single points and poor fits give uncertain potencies.

Experiment: qHTS Assay for Lipid Storage Modulators in Drosophila S3 Cells;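 as to cell number change: cells counted by Cell Tracker Red CMTPX staining in the red channel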
Details: BODIPY lipid droplet fluorescence, 18-24 h; for cell number change: measured here: cell count max response, cells fed with added oleic acid
How it was run: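 Drosophila S3 cells got compounds at several concentrations plus oleic acid (400 uM solution). Laser-scanning cytometry with 488 nm excitation read lipid droplets at 500-530 nm and cells at 575-640 nm. Percent activity was relative to 20 uM Triacsin C.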

[1] = measured here: lipid fluorescence (Fed channel) AC50, cells fed with added oleic acid
[2] = measured here: cell number channel AC50, cells fed with added oleic acid

Row | Compound | AC50 [1] | cell number change [%] | AC50 [2]
1 | Cc1ccc(CNC(=O)NC2CCCCC2)cc1 | 3.66 µM [rising, single point] |  | 
2 | COc1ccc(N2CCN(C(=O)Cn3cnc4c(cnn4-c4ccc(C)cc4)c3=O)CC2)cc1 |  | 13 | 
3 | C=CCN(C(=O)c1ccc2c(c1)nnn2C)c1ccccc1 |  | -7.98 | 
4 | COc1ccc(NC(=O)c2cc3n(n2)C(C(F)(F)F)CC(c2ccc4c(c2)OCO4)N3)cc1OC (configuration not stated) | 29.1 µM [falling, single point] |  | 
5 | CN(C(=O)COC(=O)c1ccc(Cl)nc1)c1c(N)n(Cc2ccccc2)c(=O)[nH]c1=O | 3.66 µM [rising, single point] | 13.2 | 
6 | CN(C(=O)CSc1nnc(-c2ccc(F)cc2)c2ccccc12)C1CCS(=O)(=O)C1 (configuration not stated) | 0.58 µM [rising, single point] | -32.2 | 29.1 µM [falling, single point]
7 | S=C(NCCc1ccccc1)NC1CCCCCC1 | 0.259 µM [falling, full curve] |  | 6.51 µM [falling, single point]
8 | Cc1ccnc2nc(C(=O)OCC(=O)N3CC(C)CC(C)C3)nn12 (configuration not stated) |  | 2.81 | 
9 | CC(C)NS(=O)(=O)c1ccc(CCC(=O)NCc2ccco2)cc1 | 0.164 µM [falling, full curve, poor fit] | -1.15 | 
10 | CCC(C)(C)C1CCc2[nH]nc(C(=O)NCc3ccc(OC)cc3)c2C1 (configuration not stated) |  | -41.5 | 29.1 µM [falling, single point]
11 | CCOc1ccccc1N=Nc1c(C)[nH]n(-c2ccccc2)c1=O |  | -16.2 | 3.66 µM [falling, single point]
12 | Cc1c(OCC(=O)NCCCn2ccnc2)ccc2c3c(c(=O)oc12)CCCC3 | 29.1 µM [falling, single point] |  | 
13 | CC(C)C(=O)Nc1nnc(Cc2ccccc2)s1 | 0.13 µM [falling, full curve, poor fit] | -1.17 | 
14 | Cc1ccc(NC(=O)CN(c2ccc(Cl)cc2)S(=O)(=O)c2cc([N+](=O)[O-])ccc2Cl)cc1 | 8.2 µM [rising, partial curve] | 38.8 | 16.4 µM [rising, single point]
15 | CC(=O)c1cc2c(cc1NS(=O)(=O)c1ccc(C)cc1)OCO2 |  | 11.8 | 
16 | Cc1cccc(C)c1NC(=O)COC(=O)C1C2CC3OC(=O)C1C3C2 (configuration not stated) | 2.31 µM [rising, full curve] | 10.7 | 

Row | Compound | AC50 [1] | cell number change [%] | AC50 [2]
17 | COc1ccc(/C=N/Nc2cc(N3CCCC3)nc(N3CCCC3)n2)cc1 | 18.4 µM [falling, single point] | -30 | 23.1 µM [falling, single point]
18 | CCOC(=O)C1=C(c2ccccc2)OC(N)=C(C#N)C1C1CCCCC1 (configuration not stated) |  | -23.7 | 
19 | CCN1CCCC1CNC(=O)c1ccc(N2CCOCC2)c(NS(=O)(=O)c2ccc(OC)cc2)c1 (configuration not stated) | 0.517 µM [falling, single point] | 9.99 | 
20 | CC1(C)CC(=O)C(C2c3ccccc3Oc3ccccc32)C(=O)C1 | 25.9 µM [falling, single point] | -8.8 | 
21 | CCc1nc(C)cn1S(=O)(=O)c1ccc(Br)cc1 | 29.1 µM [rising, single point] |  | 
22 | O=C(CCCn1c(=S)[nH]c2ccccc2c1=O)N1CCOCC1 |  | -3.16 | 
23 | Cc1ccc(S(=O)(=O)NCc2ccccn2)c(C)c1 |  | 25.6 | 
24 | CC(C)Oc1cccc(C(=O)NC(=S)N2CCN(c3ccc(C(F)(F)F)cc3[N+](=O)[O-])CC2)c1 |  | 31.2 | 0.517 µM [rising, partial curve, poor fit]
25 | Cc1cc(C)nc(S/C=C/C(=O)c2ccccc2F)n1 | 29.1 µM [falling, single point] | -35 | 7.31 µM [falling, partial curve, poor fit]
26 | COc1ccc(C2=CSC3=NCCN23)cc1OC |  | -1.46 | 
27 | CC(CN1CCCC1)OC(=O)Cc1ccc(Cl)cc1 (configuration not stated) |  | -0.265 | 
28 | Cc1ccc(-c2noc(CCC(=O)NC3CCCC3)n2)cc1 | 6.51 µM [rising, full curve, poor fit] | 2.1 | 
29 | Cc1ccc(COCC(CC(C)C)N2CCN(C(=O)c3cccc(C(F)(F)F)c3)CCC2=O)cc1 (configuration not stated) | 32.6 µM [falling, partial curve, poor fit] | -37.3 | 16.4 µM [falling, partial curve, poor fit]
30 | CCOCCCNC(=O)C(c1ccc(C)cc1)N(Cc1ccc2c(c1)OCO2)C(=O)CNC(C)=O (configuration not stated) | 29.1 µM [rising, single point] | 18.9 | 
31 | COc1cc(NC(=O)CSCc2ccc(Cl)cc2)c(C(=O)O)cc1OC | 14.6 µM [rising, partial curve] | 1.32 | 
32 | Cc1ccc(NC(=O)/C=C/c2cccc([N+](=O)[O-])c2)nc1 | 0.00461 µM [falling, full curve, poor fit] | -17.1 | 0.00461 µM [falling, full curve, poor fit]

Part of the list above, tab-delimited.
Row	Compound	AC50 [1]	cell number change [%]	AC50 [2]
17	COc1ccc(/C=N/Nc2cc(N3CCCC3)nc(N3CCCC3)n2)cc1	18.4 µM [falling, single point]	-30	23.1 µM [falling, single point]
18	CCOC(=O)C1=C(c2ccccc2)OC(N)=C(C#N)C1C1CCCCC1 (configuration not stated)		-23.7	
